# Some of the results follow. Shown are side measurements of this screen, not its main read-out; they come without a call. The list favours compounds with an active or inconclusive main result. Words in brackets tell the shape of the fitted curve; partial curves, single points and poor fits give uncertain potencies.
# Assay: qHTS Assay for Lipid Storage Modulators in Drosophila S3 Cells;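 on cell number change: cells counted by Cell Tracker Red CMTPX staining in the red channel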
# Settings: BODIPY lipid droplet fluorescence, 18-24 h; for cell number change: measured here: cell count max response, cells fed with added oleic acid
# How it was run: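 Drosophila S3 cells loaded with oleic acid (400 uM, as added) and compounds at several concentrations; lipid droplets imaged by 488-nm laser-scanning cytometry, 500–530 nm intensity and object ratio to cell channel. Percent activity normalized to 20 uM Triacsin C.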
# [1] = measured here: cell number channel AC50, cells fed with added oleic acid
# [2] = measured here: lipid fluorescence (Fed channel) AC50, cells fed with added oleic acid
Structure (SMILES),cell number change [%],AC50 [1],AC50 [2]
N#CC1(c2ccccc2)CCC(NCCc2ccccc2)CC1 (centres undefined),15.6,–,–
COc1ccc(CNC(=O)CN(C(=O)CCC(=O)Nc2ccccn2)c2cccc(C)c2)cc1,17.2,"0.0411 µM [rising, full curve, poor fit]","4.61 µM [rising, single point]"
Cc1cc(C)n(CC(O)Cn2c(C)c(C)c3ccccc32)n1 (centres undefined),36.8,"14.6 µM [rising, partial curve, poor fit]","3.66 µM [rising, partial curve, poor fit]"
CCCn1c(SCC(=O)NC(=O)NC(C)(C)C)n[nH]c1=O,32.4,"16.4 µM [rising, single point]",–
O=C(COC(=O)C1CCC(N2C(=O)C3C4CCC(C4)C3C2=O)CC1)c1ccc(F)cc1 (centres undefined),–,–,"16.4 µM [falling, partial curve, poor fit]"
CCCCNC(=O)CCn1c(=O)c2ccccc2n(CC(=O)N2CC(C)CC(C)C2)c1=O (centres undefined),24.8,"2.91 µM [rising, single point]","6.51 µM [rising, single point]"
O=C(Cc1cccs1)Nc1ccccc1-c1nc2ccccc2[nH]1,-5.33,–,"29.1 µM [falling, single point]"
CCCOc1ccc(/C=C/C(=O)NC2CCCCC2)cc1,-22.6,–,"0.206 µM [falling, full curve, poor fit]"
Cc1ccn2c(NCc3ccc4c(c3)OCO4)c(-c3ccc(O)cc3)nc2c1,72.9,"29.1 µM [rising, single point]",–
O=C(Nc1cc([N+](=O)[O-])ccc1N1CCCC1)c1ccco1,–,"0.92 µM [rising, partial curve]","6.51 µM [falling, single point]"
C=CCN(C(=O)c1cccc(S(=O)(=O)N2CCN(C)CC2)c1)c1nc(-c2ccccc2)cs1,-35.5,"29.1 µM [falling, single point]",–
CCOc1ccc(C(=O)Nc2ccc(NC(=O)c3ccccc3)c(C)c2)cc1[N+](=O)[O-],-17.9,–,"0.259 µM [falling, full curve]"
O=C(NC1CCCCC1)C(c1ccccc1F)N(Cc1ccco1)C(=O)c1ccccn1 (centres undefined),13.4,–,–
CCCn1c(SCC(=O)NC(C)c2ccccc2)n[nH]c1=O (centres undefined),43.2,"29.1 µM [rising, single point]","20.6 µM [rising, single point]"
O=C1CC(=O)C(n2cncn2)C(c2ccc(Cl)cc2)C1 (centres undefined),-70.8,"23.1 µM [falling, partial curve, poor fit]",–
COc1ccc(CNCC(O)COc2ccc(C(C)(C)c3ccccc3)cc2)cc1 (centres undefined),-64.6,"14.6 µM [falling, partial curve]","16.4 µM [falling, partial curve]"
Cc1ccc(OCC(=O)Nc2ccc(NC(=O)c3cccs3)cc2)c(C)c1,-25.4,–,"23.1 µM [falling, single point]"
CC1=CCC2(CO)COC(c3ccccc3O)C1C2 (centres undefined),-2.36,–,"0.058 µM [falling, full curve]"
Cc1cc(NC(=O)Cc2cn3ccsc3n2)n(-c2ccccc2)n1,48.7,"7.31 µM [falling, partial curve, poor fit]",–

# Given tab-delimited: entries from further up.
Structure (SMILES)	cell number change [%]	AC50 [1]	AC50 [2]
O=C(COC(=O)C1CCC(N2C(=O)C3C4CCC(C4)C3C2=O)CC1)c1ccc(F)cc1 (centres undefined)	–	–	16.4 µM [falling, partial curve, poor fit]
CCCCNC(=O)CCn1c(=O)c2ccccc2n(CC(=O)N2CC(C)CC(C)C2)c1=O (centres undefined)	24.8	2.91 µM [rising, single point]	6.51 µM [rising, single point]
CCOc1ccc(C(=O)Nc2ccc(NC(=O)c3ccccc3)c(C)c2)cc1[N+](=O)[O-]	-17.9	–	0.259 µM [falling, full curve]

# Further structures:

Structure (SMILES),cell number change [%],AC50 [1],AC50 [2]
CCOC(=O)C1CCN(S(=O)(=O)c2cnc[nH]2)CC1,-9.33,–,"0.731 µM [falling, single point]"
Cc1ccc(OCCn2cnc3c(N)ncnc32)cc1,16.5,–,"16.4 µM [rising, partial curve, poor fit]"
O=C(Nc1ccc(Nc2ccccc2)cc1)c1ccc(Cl)c([N+](=O)[O-])c1,-38.5,"20.6 µM [falling, single point]",–
COCc1c(C(=O)N/N=C(/C)c2ccccc2)nnn1-c1nonc1N,19.4,–,–
CCOc1cc(N2CCOCC2)c(OCC)cc1NC(=O)Cc1cccc2ccccc12,18,"0.291 µM [rising, partial curve]","1.64 µM [rising, partial curve]"
CCOc1ccc(Nc2cc(C)c3ccccc3n2)cc1,–,"0.651 µM [rising, partial curve]","6.51 µM [rising, single point]"
COc1ccc(CCNC(=O)CC2Nc3ccccc3NC2=O)cc1 (centres undefined),2.52,–,–
c1ccc(-c2noc(-c3cccnc3)n2)cc1,48,"29.1 µM [rising, single point]",–
CC(=O)N1c2ccccc2[C@H](C)[C@H]1C,-27,–,"29.1 µM [falling, single point]"
COC(=O)c1ccc2nc(Nc3nc4c(F)cc(F)cc4s3)sc2c1,-41.9,"6.51 µM [falling, full curve, poor fit]","18.4 µM [rising, single point]"
COc1ccc2c(c1)Cc1sc(NC(=O)c3ccco3)nc1-2,-7.65,–,"25.9 µM [falling, single point]"
Cc1ccccc1OCC(=O)NCCN(C)C,4.48,–,"0.517 µM [falling, single point]"
Cc1ccc(C(=O)OCc2c(C)noc2C)cc1NC(=O)c1ccco1,28.3,"0.231 µM [rising, full curve, poor fit]","0.259 µM [rising, full curve]"
Cc1cc(C)c2c(=O)cc(C(=O)NCc3ccccc3)oc2c1,13.6,–,"23.1 µM [rising, single point]"
CC1CCN(c2ccc(NC(=O)C3CCCN3S(=O)(=O)c3ccc(F)cc3)cc2)CC1 (centres undefined),-12.8,–,"18.4 µM [falling, single point]"
COc1cc(C(=O)NC(=S)Nc2cccc(-c3cc4ccccc4oc3=O)c2)cc(OC)c1OC,-12.1,–,"32.6 µM [falling, partial curve, poor fit]"
Nc1c(-c2ccccc2)c(CSc2nc3ccccc3[nH]2)nn1-c1cccc(C(=O)O)c1,19.7,–,"18.4 µM [falling, partial curve]"
O=C(COC(=O)c1cccc(S(=O)(=O)N2CCN(c3ccc(F)cc3)CC2)c1)NCC1CCCO1 (centres undefined),-21.9,"0.116 µM [falling, full curve, poor fit]","0.731 µM [falling, full curve]"
O=C1CCCCCN1CP(=O)(O)CN1CCOCC1,-17.6,–,"32.6 µM [falling, single point]"

Structure (SMILES),cell number change [%],AC50 [1],AC50 [2]
CC(C)c1ccc(NC(=O)NCc2ccc3c(c2)OCO3)cc1,11.6,–,"8.91 µM [rising, partial curve]"
CCCNC(=O)c1ccc(Cl)cc1Cl,26.1,"0.0103 µM [rising, full curve, poor fit]","0.0259 µM [rising, full curve]"
O=C(/C=C/c1ccccc1)NC(=S)Nc1ccccc1C(=O)NC1CCCCC1,-7.47,–,"20.6 µM [falling, single point]"
CN(c1ccc(C(=O)N2CCOCC2)cc1)S(=O)(=O)c1cccs1,8.7,–,"29.1 µM [rising, single point]"
Cc1ccccc1C(=O)O/N=C(\N)c1ccccc1,7.41,–,"1.16 µM [rising, full curve, poor fit]"
C/C(=N\NC(=O)c1nnn(-c2nonc2N)c1-c1ccccc1)c1ccccc1O,126,"20.6 µM [rising, partial curve]","4.11 µM [falling, full curve]"
CCOc1ccc2nc(-c3ccc(OC)c(OC)c3)cc(C(=O)O)c2c1,20.6,–,"29.1 µM [falling, single point]"
CCOCC(=O)Nc1cccc(-c2nc3cccnc3s2)c1C,7.24,–,"4.11 µM [rising, partial curve]"
CSc1nnc(C)c(=O)n1COC(=O)c1ccc(S(=O)(=O)N(C)C)cc1,-23.2,–,"5.17 µM [falling, full curve, poor fit]"
COCc1cccc(C2=CC(=O)C[C@H](c3ccc(OC)cc3)C2)c1,-6.74,–,–
Cc1ccc(NC(=S)NCc2ccccc2)cc1S(=O)(=O)N1CCCCC1,–,–,"29.1 µM [falling, partial curve]"
CN(C)S(=O)(=O)c1cccc(C(=O)Nc2ccc(Cl)cn2)c1,-2.17,–,"18.4 µM [falling, single point]"
O=C(CSc1n[nH]c(-c2ccco2)n1)Nc1ccc(Br)cc1,-30.7,"3.26 µM [falling, full curve, poor fit]","6.51 µM [falling, single point]"
Cn1c2ccccc2c2nnc(SCc3ccc4nonc4c3)nc21,14.9,–,"6.51 µM [rising, single point]"
O=C(CN1C(=O)CCC1=O)NNc1ccc2ccccc2c1,-33.5,"29.1 µM [falling, single point]",–
COc1ccc(/C=C2\SC(=O)N(CCNC(=O)C3=COCCO3)C2=O)cc1,–,–,"2.91 µM [rising, single point]"
Cc1ccc(S(=O)(=O)NCC(C)n2nc(C)cc2C)cc1 (centres undefined),4.78,–,"14.6 µM [rising, partial curve]"
CN1C(=O)/C(=C\c2ccc(N(C)C)cc2)OC1=S,17.3,–,"9.2 µM [falling, partial curve, poor fit]"
COc1ccccc1N(C(=O)c1snc(C(N)=O)c1N)C(C(=O)NCCC(C)C)c1ccco1 (centres undefined),3.09,"1.46 µM [rising, partial curve]","1.46 µM [rising, partial curve, poor fit]"

# Source: PubChem BioAssay AID2685 (National Center for Advancing Translational Sciences (NCATS), 2010)
